Experimental data published in US7381728B2, “Piperazine derivatives useful for the treatment of gastrointestinal disorders” (Glaxo Group Limited, priority 2004, dated 2008).
Some results were stated once for a whole list of compounds, not compound by compound.

Chains of the proteins cited; added tags and fusions are not shown.
UniProt Q92847, whole entry: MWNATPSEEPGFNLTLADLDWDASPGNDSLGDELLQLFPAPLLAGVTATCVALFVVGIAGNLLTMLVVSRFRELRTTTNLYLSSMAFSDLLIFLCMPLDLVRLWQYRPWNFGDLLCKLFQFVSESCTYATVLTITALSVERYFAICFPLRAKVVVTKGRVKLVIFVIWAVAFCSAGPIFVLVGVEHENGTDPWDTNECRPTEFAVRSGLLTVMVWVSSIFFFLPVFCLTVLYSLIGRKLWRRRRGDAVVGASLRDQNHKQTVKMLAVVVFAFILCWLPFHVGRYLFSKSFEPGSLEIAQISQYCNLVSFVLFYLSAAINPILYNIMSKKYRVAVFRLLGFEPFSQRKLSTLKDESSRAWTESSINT

Tests used:
Ghrelin Receptor GHS-R [1] = target: T1, Ghrelin Receptor GHS-R (Homo sapiens, UniProt Q92847); assay: GHS-R GTPγS functional agonist assay; format: biochemical; parameters: The open reading frame of GHS-R was transferred from pCDN into pFastBacmam vector; expressed in transfected cells; host or cells: Membranes of HEK293T cells (Lipofectamine, pCDNA3) or of HEK293F cells (BacMam co-transduction with rat Gαo); conditions: membranes of HEK293 cells transiently expressing GHS-R (protocols I and II); [35S]GTPγS SPA; read-out: activity in the GHS-R GTPγS functional agonist assays
Ghrelin Receptor GHS-R [2] = target: T1, Ghrelin Receptor GHS-R; assay: GHSR Agonist BACMAM FLIPR Assay; format: cell-based; parameters: The open reading frame of GHS-R was transferred from pCDN into pFastBacmam vector; expressed in transfected cells; host or cells: HEK MSR II cells or U2OS cells transduced with human GHSR BacMam virus; conditions: HEK MSR II or U2OS cells transduced with human GHSR BACMAM virus; Fluo 4 calcium fluorescence

Structure (SMILES) | EC50 (Ghrelin Receptor GHS-R [1]) [nM] | EC50 (Ghrelin Receptor GHS-R [2]) [nM]
COc1ccc(N2C[C@@H](C)N[C@@H](C)C2)cc1NS(=O)(=O)c1ccc(-c2cc(C)cs2)cc1Cl [Example 113, 2-Chloro-N-[5-(cis-3,5-dimethyl-1-piperazinyl)-2-(methyloxy)phenyl]-4-(4-methyl-2-thienyl)benzenesulfonamide] | < 1000 | < 1000
COc1ccc(NS(=O)(=O)c2ccc(-c3ccc(F)c(Cl)c3)s2)cc1N1C[C@@H](C)N[C@@H](C)C1 [Example 216, 5-(3-Chloro-4-fluorophenyl)-N-[3-(cis-3,5-dimethyl-1-piperazinyl)-4-(methyloxy)phenyl]-2-thiophenesulfonamide] | < 1000 | < 1000
COc1ccc(N2C[C@@H](C)N[C@@H](C)C2)cc1NS(=O)(=O)c1ccc(-c2cccc(C)c2)s1 [Example 205, N-[5-(cis-3,5-Dimethyl-1-piperazinyl)-2-(methyloxy)phenyl]-5-(3-methylphenyl)-2-thiophenesulfonamide] | < 1000 | < 1000
COc1ccc(N2C[C@@H](C)N[C@@H](C)C2)cc1NS(=O)(=O)c1ccc(-c2cccc(F)c2)s1 [Example 209, N-[5-(cis-3,5-Dimethyl-1-piperazinyl)-2-(methyloxy)phenyl]-5-(3-fluorophenyl)-2-thiophenesulfonamide] | < 1000 | < 1000
COc1ccc(N2C[C@@H](C)N[C@@H](C)C2)cc1NS(=O)(=O)c1ccc(Br)c(F)c1 [Example 105, 4-Bromo-N-[5-(cis-3,5-dimethyl-1-piperazinyl)-2-(methyloxy)phenyl]-3-fluorobenzenesulfonamide] | < 1000 | < 1000
COc1ccc(N2C[C@@H](C)N[C@@H](C)C2)cc1NS(=O)(=O)c1ccc(Br)cc1F [Example 103, 4-Bromo-N-[5-(cis-3,5-dimethyl-1-piperazinyl)-2-(methyloxy)phenyl]-2-fluorobenzenesulfonamide] | < 1000 | < 1000
COc1cc(OC)c(N2C[C@@H](C)N[C@@H](C)C2)cc1NS(=O)(=O)c1ccc(-c2cccs2)cc1 [Example 244, N-[5-(cis-3,5-Dimethyl-1-piperazinyl)-2,4-bis(methyloxy)phenyl]-4-(2-thienyl)benzenesulfonamide] | < 1000 | < 1000
C[C@@H]1CN(c2ccc(F)c(NS(=O)(=O)c3ccc(-c4ccccc4)cc3)c2)C[C@H](C)N1 [Example 84, N-[5-(cis-3,5-Dimethyl-1-piperazinyl)-2-fluorophenyl]-4-biphenylsulfonamide] | < 1000 | < 1000
COc1ccc(NS(=O)(=O)c2ccc(-c3ccoc3)cc2)cc1N1C[C@@H](C)N[C@@H](C)C1 [Example 185, N-[3-(cis-3,5-Dimethyl-1-piperazinyl)-4-(methyloxy)phenyl]-4-(3-furanyl)benzenesulfonamide] | < 1000 | < 1000
COc1ccc(NS(=O)(=O)c2ccc(-c3cc(F)cc(F)c3)s2)cc1N1C[C@@H](C)N[C@@H](C)C1 [Example 220, 5-(3,5-Difluorophenyl)-N-[3-(cis-3,5-dimethyl-1-piperazinyl)-4-(methyloxy)phenyl]-2-thiophenesulfonamide] | < 1000 | < 1000
COc1ccc(NS(=O)(=O)/C=C/c2ccccc2)cc1N1C[C@@H](C)N[C@@H](C)C1 [Example 6, (E)—N-[3-(cis-3,5-Dimethyl-1-piperazinyl)-4-(methyloxy)phenyl]-2-phenylethenesulfonamide] | < 1000 | < 1000
COc1ccc(N2C[C@@H](C)N[C@@H](C)C2)cc1NS(=O)(=O)c1cccc(Br)c1 [Example 76, 3-Bromo-N-[5-(cis-3,5-dimethyl-1-piperazinyl)-2-(methyloxy)phenyl]benzenesulfonamide] | < 1000 | < 1000
COc1ccc(NS(=O)(=O)c2cc3cc(Cl)ccc3s2)cc1N1C[C@@H](C)N[C@@H](C)C1 [Example 7, 5-Chloro-N-[3-(cis-3,5-dimethyl-1-piperazinyl)-4-(methyloxy)phenyl]-1-benzothiophene-2-sulfonamide] | < 1000 | < 1000
COc1ccc(N2C[C@@H](C)N[C@@H](C)C2)cc1NS(=O)(=O)c1ccc(-c2ccoc2)cc1C [Example 163, N-[5-(cis-3,5-Dimethyl-1-piperazinyl)-2-(methyloxy)phenyl]-4-(3-furanyl)-2-methylbenzenesulfonamide] | < 1000 | < 1000
CC(C)Oc1ccc(N2C[C@@H](C)N[C@@H](C)C2)cc1NS(=O)(=O)c1ccc(-c2cccs2)cc1 [Example 196, N-{5-(cis-3,5-Dimethyl-1-piperazinyl)-2-[(1-methylethyl)oxy]phenyl}-4-(2-thienyl)benzenesulfonamide] | < 1000 | < 1000
COc1ccc(N2C[C@@H](C)N[C@@H](C)C2)cc1NS(=O)(=O)c1ccc(-c2ccccc2Cl)s1 [Example 208, 5-(2-Chlorophenyl)-N-[5-(cis-3,5-dimethyl-1-piperazinyl)-2-(methyloxy)phenyl]-2-thiophenesulfonamide] | < 1000 | < 1000
COc1ccc(N2C[C@@H](C)N[C@@H](C)C2)cc1NS(=O)(=O)c1ccc(-c2cccs2)c(F)c1 [Example 114, N-[5-(cis-3,5-Dimethyl-1-piperazinyl)-2-(methyloxy)phenyl]-3-fluoro-4-(2-thienyl)benzenesulfonamide] | < 1000 | < 1000
COc1ccc(N2C[C@@H](C)N[C@@H](C)C2)cc1NS(=O)(=O)c1ccc(-c2cnco2)cc1 [Example 56, N-[5-(cis-3,5-Dimethyl-1-piperazinyl)-2-(methyloxy)phenyl]-4-(1,3-oxazol-5-yl)benzenesulfonamide] | < 1000 | < 1000
COc1ccc(N2C[C@@H](C)N[C@@H](C)C2)cc1NS(=O)(=O)c1cc(F)c(-c2ccco2)cc1F [Example 293, N-[5-(cis-3,5-Dimethyl-1-piperazinyl)-2-(methyloxy)phenyl]-2,5-difluoro-4-(2-furanyl)benzenesulfonamide] | < 1000 | < 1000
COc1ccc(NS(=O)(=O)c2ccc(-c3cccs3)s2)cc1N1C[C@@H](C)N[C@@H](C)C1 [Example 138, N-[3-(cis-3,5-Dimethyl-1-piperazinyl)-4-(methyloxy)phenyl]-2,2′-bithiophene-5-sulfonamide] | < 1000 | < 1000
COc1ccc(N2C[C@@H](C)N[C@@H](C)C2)cc1NS(=O)(=O)c1ccc(-c2ccco2)nc1 [Example 272, N-[5-(cis-3,5-Dimethyl-1-piperazinyl)-2-(methyloxy)phenyl]-6-(2-furanyl)-3-pyridinesulfonamide] | < 1000 | < 1000
COc1ccc(N2C[C@@H](C)N[C@@H](C)C2)cc1NS(=O)(=O)c1ccc(-c2ccoc2)cc1Cl [Example 183, 2-Chloro-N-[5-(cis-3,5-dimethyl-1-piperazinyl)-2-(methyloxy)phenyl]-4-(3-furanyl)benzenesulfonamide] | < 1000 | < 1000
COc1ccc(N2C[C@@H](C)N[C@@H](C)C2)cc1NS(=O)(=O)c1ccc(-c2cc(C)cs2)c(F)c1 [Example 115, N-[5-(cis-3,5-Dimethyl-1-piperazinyl)-2-(methyloxy)phenyl]-3-fluoro-4-(4-methyl-2-thienyl)benzenesulfonamide] | < 1000 | < 1000
